Measured values from PMC10403576.

The chains behind the UniProt entries cited, without tags or fusion partners. Residues count along the entry.
UniProt P09192, residues 2-330: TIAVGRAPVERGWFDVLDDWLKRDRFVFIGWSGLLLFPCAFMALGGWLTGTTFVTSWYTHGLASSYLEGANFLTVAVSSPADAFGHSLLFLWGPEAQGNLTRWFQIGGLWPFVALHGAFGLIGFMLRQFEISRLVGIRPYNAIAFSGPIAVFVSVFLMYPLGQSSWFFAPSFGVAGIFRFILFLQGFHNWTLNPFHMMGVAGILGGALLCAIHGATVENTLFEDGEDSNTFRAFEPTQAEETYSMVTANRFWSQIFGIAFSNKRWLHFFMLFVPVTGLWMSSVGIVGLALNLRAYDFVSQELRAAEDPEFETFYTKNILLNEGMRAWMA
UniProt P29255: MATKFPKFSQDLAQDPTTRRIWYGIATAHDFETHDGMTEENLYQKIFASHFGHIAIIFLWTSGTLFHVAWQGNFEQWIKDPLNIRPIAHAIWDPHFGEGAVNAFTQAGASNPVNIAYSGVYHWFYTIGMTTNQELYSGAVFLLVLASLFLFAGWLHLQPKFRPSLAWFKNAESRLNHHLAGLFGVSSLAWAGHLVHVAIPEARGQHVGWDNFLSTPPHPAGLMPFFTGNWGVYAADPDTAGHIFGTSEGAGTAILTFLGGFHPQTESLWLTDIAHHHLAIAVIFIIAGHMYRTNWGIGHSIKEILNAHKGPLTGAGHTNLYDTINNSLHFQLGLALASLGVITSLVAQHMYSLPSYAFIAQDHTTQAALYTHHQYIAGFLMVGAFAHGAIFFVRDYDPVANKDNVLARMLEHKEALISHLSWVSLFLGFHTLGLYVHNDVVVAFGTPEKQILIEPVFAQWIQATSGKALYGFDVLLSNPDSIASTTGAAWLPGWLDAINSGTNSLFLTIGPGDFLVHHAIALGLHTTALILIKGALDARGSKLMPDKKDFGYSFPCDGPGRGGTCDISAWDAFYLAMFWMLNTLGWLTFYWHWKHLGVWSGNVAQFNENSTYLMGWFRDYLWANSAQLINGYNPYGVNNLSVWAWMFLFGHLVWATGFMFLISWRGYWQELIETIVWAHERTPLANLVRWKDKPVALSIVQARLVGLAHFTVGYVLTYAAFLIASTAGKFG
UniProt P32422: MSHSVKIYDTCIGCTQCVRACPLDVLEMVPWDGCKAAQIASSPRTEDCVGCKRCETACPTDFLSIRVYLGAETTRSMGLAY
UniProt P29254: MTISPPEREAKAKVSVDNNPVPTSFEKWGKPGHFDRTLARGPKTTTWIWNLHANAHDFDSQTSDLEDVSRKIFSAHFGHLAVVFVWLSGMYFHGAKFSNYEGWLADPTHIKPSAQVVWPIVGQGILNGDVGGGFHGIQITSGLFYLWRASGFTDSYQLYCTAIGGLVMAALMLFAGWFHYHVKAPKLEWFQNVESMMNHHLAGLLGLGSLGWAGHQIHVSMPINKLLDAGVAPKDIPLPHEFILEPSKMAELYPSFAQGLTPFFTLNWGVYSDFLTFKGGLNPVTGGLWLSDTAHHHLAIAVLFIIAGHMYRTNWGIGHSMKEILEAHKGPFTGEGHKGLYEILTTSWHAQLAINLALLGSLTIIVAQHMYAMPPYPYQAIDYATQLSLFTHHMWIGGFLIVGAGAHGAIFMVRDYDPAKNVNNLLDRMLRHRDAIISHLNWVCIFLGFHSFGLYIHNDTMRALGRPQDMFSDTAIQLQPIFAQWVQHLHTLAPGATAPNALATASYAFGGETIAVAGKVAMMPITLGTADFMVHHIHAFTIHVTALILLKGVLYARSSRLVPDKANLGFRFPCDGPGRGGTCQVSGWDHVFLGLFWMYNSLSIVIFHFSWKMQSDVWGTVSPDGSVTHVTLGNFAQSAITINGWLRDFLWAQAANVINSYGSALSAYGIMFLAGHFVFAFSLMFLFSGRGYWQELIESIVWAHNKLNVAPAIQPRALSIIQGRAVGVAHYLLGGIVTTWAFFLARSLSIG

Target: His-tagged D2 reaction center subunit of PSII (Synechocystis sp. PCC 6803) (UniProt P09192)
Assay: affinity purification with mass spectrometry; His-tagged D2 complexes from thylakoid membranes of strain His-D2/ΔCP47 solubilised with 1.5% DM, Protino Ni-NTA agarose at 10 °C, then 10–30% sucrose gradient; the RCII/PSI fraction analysed by SDS-PAGE, immunoblotting and mass spectrometry

| binding | Substance |
| --- | --- |
| binds | PsaB RC subunit of PSI (from UniProt P29255 1-731) |
| binds | PsaC subunit of PSI (from UniProt P32422 1-81) |
| binds | PsaA subunit of PSI (from UniProt P29254 1-751) |

No constants are given. Whether binding was seen depends on the method and setting. In cells and extracts the contact can be indirect. These calls come from enrichment with a bait or labelling near it, and not all partners need be listed.
